# Data as given in the supplement of paper PMC11732987, “Enantioselective OTUD7B fragment discovery through chemoproteomics screening and high-throughput optimisation” (Communications Chemistry, 2025).
# Protein sequences, listed by entry. Tags and fused reporters are not part of them. Lines headed by an entry give the natural chain unless they say otherwise; changes in a name come on top. Residues count along the entry.
# UniProt Q9NX24: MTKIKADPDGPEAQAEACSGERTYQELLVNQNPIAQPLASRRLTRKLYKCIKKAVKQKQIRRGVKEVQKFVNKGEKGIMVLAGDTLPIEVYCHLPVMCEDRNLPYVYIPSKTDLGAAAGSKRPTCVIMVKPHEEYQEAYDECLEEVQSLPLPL
# UniProt Q96PY6: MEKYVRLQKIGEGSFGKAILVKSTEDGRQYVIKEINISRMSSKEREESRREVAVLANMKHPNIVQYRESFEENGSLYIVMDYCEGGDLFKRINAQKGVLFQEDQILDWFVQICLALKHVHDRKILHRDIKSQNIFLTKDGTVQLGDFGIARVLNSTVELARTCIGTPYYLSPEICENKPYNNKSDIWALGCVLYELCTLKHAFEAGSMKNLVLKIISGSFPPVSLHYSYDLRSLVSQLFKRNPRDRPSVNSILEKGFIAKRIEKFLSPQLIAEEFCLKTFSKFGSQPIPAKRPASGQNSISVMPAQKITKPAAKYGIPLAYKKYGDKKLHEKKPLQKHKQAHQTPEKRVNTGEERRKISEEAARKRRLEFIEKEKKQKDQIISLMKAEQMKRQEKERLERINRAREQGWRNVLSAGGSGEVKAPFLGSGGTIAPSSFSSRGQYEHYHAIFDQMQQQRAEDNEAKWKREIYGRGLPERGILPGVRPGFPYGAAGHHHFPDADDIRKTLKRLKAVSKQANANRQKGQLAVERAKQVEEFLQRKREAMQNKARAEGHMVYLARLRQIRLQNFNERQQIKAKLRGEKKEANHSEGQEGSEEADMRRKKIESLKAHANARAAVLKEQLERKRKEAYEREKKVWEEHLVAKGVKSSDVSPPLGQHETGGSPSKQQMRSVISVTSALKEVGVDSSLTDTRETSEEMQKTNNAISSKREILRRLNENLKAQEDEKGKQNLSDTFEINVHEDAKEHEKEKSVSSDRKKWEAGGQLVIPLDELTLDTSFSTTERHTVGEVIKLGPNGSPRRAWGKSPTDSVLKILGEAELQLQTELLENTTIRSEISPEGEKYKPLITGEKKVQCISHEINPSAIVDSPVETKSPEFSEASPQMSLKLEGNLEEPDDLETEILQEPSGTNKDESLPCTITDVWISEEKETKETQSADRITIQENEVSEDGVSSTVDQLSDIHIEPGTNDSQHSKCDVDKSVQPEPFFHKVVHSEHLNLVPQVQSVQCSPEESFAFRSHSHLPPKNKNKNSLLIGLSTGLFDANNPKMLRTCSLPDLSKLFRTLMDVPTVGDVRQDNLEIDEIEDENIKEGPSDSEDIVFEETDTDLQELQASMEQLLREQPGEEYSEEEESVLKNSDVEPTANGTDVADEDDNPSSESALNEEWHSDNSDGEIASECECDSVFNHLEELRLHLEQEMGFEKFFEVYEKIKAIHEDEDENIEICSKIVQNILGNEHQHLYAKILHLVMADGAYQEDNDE
# UniProt P42695: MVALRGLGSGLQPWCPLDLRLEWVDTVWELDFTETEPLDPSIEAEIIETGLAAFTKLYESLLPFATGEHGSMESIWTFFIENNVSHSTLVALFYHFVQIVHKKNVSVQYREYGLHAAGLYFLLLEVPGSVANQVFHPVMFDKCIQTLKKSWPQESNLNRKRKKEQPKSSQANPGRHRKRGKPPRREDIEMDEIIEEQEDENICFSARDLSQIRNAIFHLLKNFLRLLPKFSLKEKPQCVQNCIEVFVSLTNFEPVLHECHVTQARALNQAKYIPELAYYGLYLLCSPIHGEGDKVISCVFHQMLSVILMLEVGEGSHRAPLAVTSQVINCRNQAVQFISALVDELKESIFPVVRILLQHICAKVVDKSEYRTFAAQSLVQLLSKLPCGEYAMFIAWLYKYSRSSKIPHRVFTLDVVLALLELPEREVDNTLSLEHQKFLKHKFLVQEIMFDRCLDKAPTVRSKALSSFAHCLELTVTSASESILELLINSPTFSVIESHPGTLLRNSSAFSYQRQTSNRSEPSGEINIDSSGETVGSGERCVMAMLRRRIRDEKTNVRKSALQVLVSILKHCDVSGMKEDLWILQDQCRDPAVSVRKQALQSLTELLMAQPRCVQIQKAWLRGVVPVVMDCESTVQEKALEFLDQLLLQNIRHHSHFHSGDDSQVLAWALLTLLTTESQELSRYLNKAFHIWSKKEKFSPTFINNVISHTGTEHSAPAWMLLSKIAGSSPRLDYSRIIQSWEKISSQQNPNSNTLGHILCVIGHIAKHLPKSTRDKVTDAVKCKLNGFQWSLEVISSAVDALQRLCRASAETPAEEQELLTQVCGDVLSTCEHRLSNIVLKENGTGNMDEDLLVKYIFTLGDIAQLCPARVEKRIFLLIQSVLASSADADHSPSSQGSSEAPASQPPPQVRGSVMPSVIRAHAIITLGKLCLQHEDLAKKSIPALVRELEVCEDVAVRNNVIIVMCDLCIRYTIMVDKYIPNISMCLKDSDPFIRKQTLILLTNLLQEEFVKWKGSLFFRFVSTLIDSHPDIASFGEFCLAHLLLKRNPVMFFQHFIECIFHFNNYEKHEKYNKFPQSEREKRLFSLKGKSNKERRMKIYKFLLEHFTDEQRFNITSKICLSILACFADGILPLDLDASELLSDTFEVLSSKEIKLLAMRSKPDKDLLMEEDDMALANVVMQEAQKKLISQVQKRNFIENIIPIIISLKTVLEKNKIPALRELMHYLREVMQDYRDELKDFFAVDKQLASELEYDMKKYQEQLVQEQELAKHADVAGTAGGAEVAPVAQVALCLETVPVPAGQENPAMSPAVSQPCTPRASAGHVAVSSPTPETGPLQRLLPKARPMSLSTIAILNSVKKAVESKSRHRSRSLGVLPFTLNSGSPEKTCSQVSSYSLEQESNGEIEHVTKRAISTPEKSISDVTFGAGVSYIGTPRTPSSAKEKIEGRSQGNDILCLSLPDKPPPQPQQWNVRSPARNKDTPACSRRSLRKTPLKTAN
# UniProt Q9UBB6: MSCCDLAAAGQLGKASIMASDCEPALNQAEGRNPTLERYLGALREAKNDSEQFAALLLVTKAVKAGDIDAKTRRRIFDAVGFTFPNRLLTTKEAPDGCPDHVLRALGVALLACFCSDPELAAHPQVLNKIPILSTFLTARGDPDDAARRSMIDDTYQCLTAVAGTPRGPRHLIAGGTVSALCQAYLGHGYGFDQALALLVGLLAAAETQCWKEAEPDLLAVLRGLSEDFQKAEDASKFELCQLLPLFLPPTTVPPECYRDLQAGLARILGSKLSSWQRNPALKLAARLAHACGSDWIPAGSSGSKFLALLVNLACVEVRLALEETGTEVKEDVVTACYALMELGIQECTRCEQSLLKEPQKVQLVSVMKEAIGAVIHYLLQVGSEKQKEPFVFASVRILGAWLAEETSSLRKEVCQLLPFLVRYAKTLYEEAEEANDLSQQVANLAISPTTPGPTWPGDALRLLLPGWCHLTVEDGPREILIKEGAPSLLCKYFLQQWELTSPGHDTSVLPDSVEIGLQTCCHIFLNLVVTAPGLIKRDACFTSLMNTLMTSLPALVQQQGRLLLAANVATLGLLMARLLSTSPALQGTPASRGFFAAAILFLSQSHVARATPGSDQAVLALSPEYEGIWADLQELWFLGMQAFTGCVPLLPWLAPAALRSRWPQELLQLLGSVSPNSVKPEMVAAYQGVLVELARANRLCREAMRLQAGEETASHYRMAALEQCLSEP
# UniProt Q9Y6Q9, whole entry, looked up: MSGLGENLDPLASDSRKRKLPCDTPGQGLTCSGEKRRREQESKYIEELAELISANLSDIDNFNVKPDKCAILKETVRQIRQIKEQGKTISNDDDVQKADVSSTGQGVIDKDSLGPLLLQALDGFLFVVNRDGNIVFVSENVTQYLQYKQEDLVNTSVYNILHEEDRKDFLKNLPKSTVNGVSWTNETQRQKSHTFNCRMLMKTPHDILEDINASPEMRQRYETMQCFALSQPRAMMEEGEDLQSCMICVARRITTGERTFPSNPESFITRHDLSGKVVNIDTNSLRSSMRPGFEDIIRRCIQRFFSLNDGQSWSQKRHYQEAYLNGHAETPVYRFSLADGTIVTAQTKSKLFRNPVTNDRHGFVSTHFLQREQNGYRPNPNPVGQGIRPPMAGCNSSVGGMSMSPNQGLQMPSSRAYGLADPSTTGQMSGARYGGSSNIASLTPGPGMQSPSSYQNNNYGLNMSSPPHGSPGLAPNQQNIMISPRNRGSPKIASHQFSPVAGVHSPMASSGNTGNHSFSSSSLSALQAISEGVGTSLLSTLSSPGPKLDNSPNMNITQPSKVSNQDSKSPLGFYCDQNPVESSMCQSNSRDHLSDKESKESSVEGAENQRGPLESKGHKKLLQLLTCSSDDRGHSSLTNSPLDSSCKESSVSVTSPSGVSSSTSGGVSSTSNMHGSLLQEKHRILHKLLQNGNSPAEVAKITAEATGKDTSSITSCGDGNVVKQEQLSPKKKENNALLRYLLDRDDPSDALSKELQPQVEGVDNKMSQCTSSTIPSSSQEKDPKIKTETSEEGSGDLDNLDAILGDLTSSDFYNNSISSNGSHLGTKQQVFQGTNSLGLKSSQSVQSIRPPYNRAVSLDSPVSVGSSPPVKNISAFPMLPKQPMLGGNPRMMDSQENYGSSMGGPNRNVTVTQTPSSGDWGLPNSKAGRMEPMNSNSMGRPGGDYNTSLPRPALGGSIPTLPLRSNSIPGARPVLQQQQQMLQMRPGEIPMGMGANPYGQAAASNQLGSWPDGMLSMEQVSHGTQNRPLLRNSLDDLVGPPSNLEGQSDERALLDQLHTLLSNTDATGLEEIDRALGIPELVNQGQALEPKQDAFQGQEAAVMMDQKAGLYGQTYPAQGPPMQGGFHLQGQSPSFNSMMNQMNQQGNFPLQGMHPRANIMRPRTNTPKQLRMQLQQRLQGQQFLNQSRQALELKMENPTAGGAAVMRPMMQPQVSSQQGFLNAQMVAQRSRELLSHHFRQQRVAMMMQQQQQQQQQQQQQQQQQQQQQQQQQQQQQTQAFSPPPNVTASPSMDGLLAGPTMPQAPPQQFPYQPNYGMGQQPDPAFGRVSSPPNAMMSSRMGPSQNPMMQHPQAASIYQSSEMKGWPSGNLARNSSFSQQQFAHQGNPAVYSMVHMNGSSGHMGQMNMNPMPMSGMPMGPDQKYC
# UniProt O95299, 85-116: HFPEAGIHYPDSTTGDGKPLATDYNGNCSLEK
# UniProt Q9Y2I1: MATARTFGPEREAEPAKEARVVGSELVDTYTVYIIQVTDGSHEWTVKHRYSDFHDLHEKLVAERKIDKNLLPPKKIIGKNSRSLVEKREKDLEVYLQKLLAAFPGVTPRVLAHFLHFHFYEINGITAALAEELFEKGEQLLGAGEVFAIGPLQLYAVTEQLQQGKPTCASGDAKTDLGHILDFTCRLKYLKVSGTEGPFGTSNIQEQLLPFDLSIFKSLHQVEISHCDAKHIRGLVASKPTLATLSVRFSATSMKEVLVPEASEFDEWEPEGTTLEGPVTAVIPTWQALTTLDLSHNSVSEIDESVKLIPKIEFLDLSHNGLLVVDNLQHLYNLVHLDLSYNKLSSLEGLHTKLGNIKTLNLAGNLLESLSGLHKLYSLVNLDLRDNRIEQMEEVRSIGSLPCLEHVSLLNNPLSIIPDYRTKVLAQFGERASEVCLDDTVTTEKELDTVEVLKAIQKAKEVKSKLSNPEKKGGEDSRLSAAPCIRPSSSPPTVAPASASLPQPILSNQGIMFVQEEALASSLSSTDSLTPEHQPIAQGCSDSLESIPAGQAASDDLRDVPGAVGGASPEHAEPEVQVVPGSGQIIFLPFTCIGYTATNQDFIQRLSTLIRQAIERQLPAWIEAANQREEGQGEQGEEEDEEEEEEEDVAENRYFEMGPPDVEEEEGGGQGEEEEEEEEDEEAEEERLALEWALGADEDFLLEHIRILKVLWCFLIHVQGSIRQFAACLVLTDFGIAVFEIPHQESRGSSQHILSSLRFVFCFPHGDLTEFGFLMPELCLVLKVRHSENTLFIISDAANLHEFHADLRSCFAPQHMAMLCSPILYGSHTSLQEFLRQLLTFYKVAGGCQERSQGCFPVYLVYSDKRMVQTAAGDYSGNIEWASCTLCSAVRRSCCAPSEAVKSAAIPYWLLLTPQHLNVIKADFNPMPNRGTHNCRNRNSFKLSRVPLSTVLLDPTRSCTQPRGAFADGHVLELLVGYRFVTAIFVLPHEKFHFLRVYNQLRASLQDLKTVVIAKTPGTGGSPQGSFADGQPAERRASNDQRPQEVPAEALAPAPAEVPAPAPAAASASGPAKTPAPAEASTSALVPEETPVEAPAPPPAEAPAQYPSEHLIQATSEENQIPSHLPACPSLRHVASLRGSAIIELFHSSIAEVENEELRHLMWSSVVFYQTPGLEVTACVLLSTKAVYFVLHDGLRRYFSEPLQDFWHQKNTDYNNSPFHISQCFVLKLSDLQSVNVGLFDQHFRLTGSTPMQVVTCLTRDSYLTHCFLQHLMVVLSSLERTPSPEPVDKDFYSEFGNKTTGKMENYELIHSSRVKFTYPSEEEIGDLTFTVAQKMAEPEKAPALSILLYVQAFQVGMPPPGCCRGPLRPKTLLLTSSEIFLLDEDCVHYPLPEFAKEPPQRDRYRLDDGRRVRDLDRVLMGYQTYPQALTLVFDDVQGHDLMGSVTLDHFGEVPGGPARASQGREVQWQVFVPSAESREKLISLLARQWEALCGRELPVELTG
# This is one part of the list. The data scatter; read single values as rough.
# Compound: ClCC(=O)N[C@@H]1CCCc2ccccc12
# Assay: log2 mean competition ratio of IA-DTB cysteine labelling (DMSO/compound) (log2 ratio); higher = stronger cysteine engagement by compound
# Conditions: 50 µM; treatment time: 4 h; cell line lysate: HEK293T
# Procedure: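 IA-DTB competitive cysteine chemoproteomics in HEK293T RIPA lysate. Lysates were treated with compound 29 or 30 at 50 or 200 µM for 4 h, then IA-DTB (500 µM, 1 h), trypsin-digested, NeutrAvidin-enriched and analysed by diaPASEF. Competition ratio = intensity DMSO / intensity compound (n=4 treated, n=64 DMSO); binding: mean log2 CR ≥ 1 and p ≤ 0.05 plus QC filters. Target is the cysteine site.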
row,Target,log2 mean competition ratio
1,NELFB C141 (UniProt Q8WX92),-0.23
2,NFS1 C381 (UniProt Q9Y697),0.208
3,NOL8 C630 (UniProt Q76FK4),-0.00529
4,NHP2 C18 (UniProt Q9NX24),-0.163
5,NEK1 C1223 (UniProt Q96PY6),-0.262
6,NCAPD3 C361 (UniProt P42695),0.144
7,NIPBL C1754 (UniProt Q6KC79),-0.236
8,NCDN C158 (UniProt Q9UBB6),-0.443
9,NOP14 C580 (UniProt P78316),0.318
10,NDUFV1 C125,-0.0322
11,NCOA3 C197 (UniProt Q9Y6Q9),0.51
12,NMD3 C55 (UniProt Q96D46),0.122
13,NFX1 C32 (UniProt Q12986),-0.2
14,NOP58 C439 (UniProt Q9Y2X3),-0.146
15,NDUFA10 C112 (UniProt O95299),-0.0416
16,NBN C487 (UniProt O60934),0.349
17,NDUFA10 C67 (UniProt O95299),-0.0337
18,NDC1 C369 (UniProt Q9BTX1),0.159
19,NISCH C848 (UniProt Q9Y2I1),0.00315
20,NCOA3 C627 (UniProt Q9Y6Q9),0.2

# Same assay, conditions: 200 µM; treatment time: 4 h; cell line lysate: HEK293T
row,Target,log2 mean competition ratio
1,NELFB C141 (UniProt Q8WX92),-0.419
2,NFS1 C381 (UniProt Q9Y697),-0.117
3,NOL8 C630 (UniProt Q76FK4),-0.247
4,NHP2 C18 (UniProt Q9NX24),-0.00566
5,NEK1 C1223 (UniProt Q96PY6),0.0521
6,NCAPD3 C361 (UniProt P42695),-0.41
7,NIPBL C1754 (UniProt Q6KC79),0.607
8,NCDN C158 (UniProt Q9UBB6),0.136
9,NOP14 C580 (UniProt P78316),-0.278
10,NDUFV1 C125,0.0577
11,NCOA3 C197 (UniProt Q9Y6Q9),-0.0571
12,NMD3 C55 (UniProt Q96D46),0.244
13,NFX1 C32 (UniProt Q12986),0.0664
14,NOP58 C439 (UniProt Q9Y2X3),-0.11
15,NDUFA10 C112 (UniProt O95299),0.308
16,NBN C487 (UniProt O60934),0.327
17,NDUFA10 C67 (UniProt O95299),0.139
18,NDC1 C369 (UniProt Q9BTX1),-0.199
19,NISCH C848 (UniProt Q9Y2I1),-0.112
20,NCOA3 C627 (UniProt Q9Y6Q9),0.733
